From paper PMC12687491
The exact form of at least one protein or probe is not confirmed. The comparison behind a weaker result is the experiment's own reference, which may not be listed here. For part of these data: At least one verdict was read from the data and is not stated in words by the source.

By UniProt entry, the sequences of proteins in these tests, tags left out. Chains listed by the source or under a name are the forms on record and can include a tag or linker.
UniProt P35631, other isoform, or with tags, fused parts or gaps: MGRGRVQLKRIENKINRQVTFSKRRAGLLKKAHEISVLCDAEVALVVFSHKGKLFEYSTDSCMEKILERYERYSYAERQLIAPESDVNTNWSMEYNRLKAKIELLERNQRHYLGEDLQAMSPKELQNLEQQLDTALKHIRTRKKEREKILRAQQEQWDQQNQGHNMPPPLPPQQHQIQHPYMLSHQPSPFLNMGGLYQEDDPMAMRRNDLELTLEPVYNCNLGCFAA

Legend:
[1] = biological target: AP1tet del144-172 (Arabidopsis thaliana) (UniProt P35631); assay: EMSA; settings: Naked DNA EMSA: 7.2 mM HEPES pH 7.3, 1.2 mM EDTA, 0.25 mg/ml BSA, 0.7 mM DTT, 60 ug/ml salmon sperm DNA, 1.3 mM spermidine, 2.5% CHAPS, 8% glycerol, on ice, protein translated in vitro, label: DY682, probe letters rebuilt from the primers and the genome, part of a longer molecule
[2] = biological target: AP1 wild type (Arabidopsis thaliana) (UniProt P35631); assay: EMSA; settings: Naked DNA EMSA: 7.2 mM HEPES pH 7.3, 1.2 mM EDTA, 0.25 mg/ml BSA, 0.7 mM DTT, 60 ug/ml salmon sperm DNA, 1.3 mM spermidine, 2.5% CHAPS, 8% glycerol, on ice, protein translated in vitro, label: DY682, probe letters rebuilt from the primers and the genome, part of a longer molecule
[3] = Kd lower than AP1 WT, value only in figure
[4] = Kd determined, value only in figure

ATGTATATGGAGATCATGAGCAAAAGTAGTAAGCAACAAAAGGAAAAGTAGAAACTTAACAAATTGAGCAAAACTAAAAGAATCTAAGCTCGTGGCCTTGAAGACAACATCCCAAGAATATCCATTATCTTCGCCTTTGTTACATCTCCACCCTTCTTTTCTTCC (double strand) [AP1 promoter DNA]
binding result [1, 3]: binds | binding result [2, 4]: binds

ATTGCTTTTTAAAGTGTACATATACATTTGTACAAATCTCACAACACTTCTCTCAAAGTACATATAAACATGTCAGCTTCATTACTTGAAATATTCTCTTTCTAATATACTCTCAGACTCAACTATATACCCTCCAATTATTGTGTACCAAAGACCCTCATAGGATTTATTCAAA (double strand) [SEP3 TSS DNA]
binding result ([1]; very weak signal, Kd not estimable): binds more weakly | binding result ([2]; very weak or not seen, Kd not estimable, binding seen at higher protein): binds more weakly

TGGGTATAAATCCAATAGACATTTGATAGTATTAAAATTGTAACCATTGGATTAAATTTAAACGTGATGGATGTAACTAAATGACTTGTCCGAGTAACATCACAACGTTCCATACTTTCCTTATTTGGAATATAATTAAATTTACCATTTATTCTTTTTTCTTGAGTTTCCTGTATATG (double strand) [AG intron DNA]
binding result [1, 3]: binds | binding result [2, 4]: binds
